Out of some 1,100 compounds screened, fewer than 10 were called active. Inconclusive results, whose numbers are uncertain, are shown with a selection of clear calls. The call rests on the fitted dose curve; in most records, active means well fitted curve in the direction sought with a large enough effect; inconclusive means small, poorly fitted or top-dose-only effect, or another doubt; inactive means no such curve, though single readings can be large or run the other way. A potency beside an inconclusive call is a rough fit, not a confirmed value.
Test: qHTS for Inhibitors of PI5P4K: ADP-Glo counter assay
Details: ADP-Glo detection counter-screen, luciferase luminescence, no enzyme; series mostly up to 76.9 µM
Source text: In addition to finding PI5P, we discovered the type II phosphatidylinositol 5-phosphate 4-kinase (PI5P4K) family (alpha, beta, gamma isoforms) that catalyze the conversion of PI5P to PI(4,5)P2. Alternatively, PI(4,5)P2 can also be synthesized through phosphatidylinositol-4-phosphate (PI4P) by the type I phosphatidylinositol 4-phosphate 5-kinases (PI4P5K). These PI5P4K enzymes therefore represent one way by which cells can regulate endogenous PI5P levels and play important roles in insulin signaling and in stress responses. […] A qHTS PI5P4K-alpha ADP-Glo assay was developed to identify specific modulators of human PI5P4K, phosphatidylinositol-5-phosphate 4-kinase (Type II PIPK). This assay was screened against the MLSMR containing ~400,000 small molecules (PubChem AID 652105). To confirm that the hits were not interacting with the detection enzyme system, a 1536-well counterscreen against the ADP-Glo kit (Promega) was utilized, as described in Davis et al., 2013 [1]. For this assay, an ATP/ADP mix of 80% ATP and 20% ADP was used to mimic the PI5P4K-alpha enzyme reaction. […] Therefore, true inhibitors of PI5P4K-alpha should have no activity in this assay. Davis et al., PLoS One. 2013;8(1):e54127. NIH Chemical Genomics Center [NCGC] NIH Molecular Libraries Probe Centers Network [MLPCN] MLPCN Grant: MH096575 Assay Submitter (PI): Atsuo Sasaki, Beth Israel Deaconess Medical Center
Two micoliter of assay buffer (0.038 M HEPES pH 7.4, 0.28 mM EGTA, 0.1% CHAPS, 7.5% DMSO) was dispensed into Greiner white solid bottom 1536-well assay plates. Compounds were then transferred via Kalypsys pin tool equipped with 1536-pin array (10 nL slotted pins, V&P Scientific, San Diego, CA). Next, 1 uL of ATP / ADP mix (4 uM ATP / 1 uM ADP final concentrations in 20 mM HEPES pH 7.4, 60 mM MgCl2, and 0.1% CHAPS) was added for a total reaction volume of 3 uL. The plates were incubated at room temperature for 60 minutes. To detect the activity, 2 uL of ADP-Glo reagent 1 was added to each well followed by 45 min room temperature incubation. Then, 4 uL of ADP-Glo reagent 2 was added to each well and the plates were incubated further for 30 min at room temperature. Finally, luminescence signal was detected using the PerkinElmer ViewLux plate reader (30 sec exposure). The data was normalized to control wells with 20% ADP / 80% ATP and wells with 100% ATP.

Structure (SMILES) | Potency
O=C(NCc1ccco1)c1cc2ccc(O)cc2oc1=O | inconclusive: 14.1 µM [inhibitor, partial curve]
O=c1c2ccccc2cnn1-c1nc2ccccc2[nH]1 | active: 25.1 µM
Cc1nn(-c2nc3ccccc3[nH]2)c(=O)c2ccccc12 | inconclusive: 20 µM [inhibitor, partial curve]
CC(C)NC(=O)c1ccc2c3n(nc2c1)-c1ccccc1CO3 | inconclusive: 35.5 µM [inhibitor, single point]
CN(C)c1ccc2nc3ccc(=O)cc-3sc2c1 | inconclusive: 28.2 µM [inhibitor, partial curve]
Cc1ccc(NC(=O)N2CCC(NC(=O)c3cccc(C)c3)CC2)cc1 | inactive
COc1ccc(C(=O)N2CCC2(C)C(=O)O)cc1F (stereo not given) | inactive
CCOc1ccc(-c2ccc(SC)nn2)cc1 | active: 15.8 µM
O=C(c1ccc(F)cc1)c1cc2ccc(O)cc2oc1=O | inconclusive: 39.8 µM [inhibitor, partial curve]
c1cc2c(cc1C1=NNC(=NC3CC3)SC1)OCCO2 | inconclusive: 28.2 µM [inhibitor, partial curve]

Source: PubChem BioAssay AID743285 (National Center for Advancing Translational Sciences (NCATS), 2014)
